Binding data for two molecules are collected here from article PMC4476745.

For experiment [1], the target named is T1, ATGL-1(S303A)::GFP (non-phosphorylatable ATGL-1 variant tagged with GFP, transgene) (C. elegans) (UniProt Q11186).
T1 sequence: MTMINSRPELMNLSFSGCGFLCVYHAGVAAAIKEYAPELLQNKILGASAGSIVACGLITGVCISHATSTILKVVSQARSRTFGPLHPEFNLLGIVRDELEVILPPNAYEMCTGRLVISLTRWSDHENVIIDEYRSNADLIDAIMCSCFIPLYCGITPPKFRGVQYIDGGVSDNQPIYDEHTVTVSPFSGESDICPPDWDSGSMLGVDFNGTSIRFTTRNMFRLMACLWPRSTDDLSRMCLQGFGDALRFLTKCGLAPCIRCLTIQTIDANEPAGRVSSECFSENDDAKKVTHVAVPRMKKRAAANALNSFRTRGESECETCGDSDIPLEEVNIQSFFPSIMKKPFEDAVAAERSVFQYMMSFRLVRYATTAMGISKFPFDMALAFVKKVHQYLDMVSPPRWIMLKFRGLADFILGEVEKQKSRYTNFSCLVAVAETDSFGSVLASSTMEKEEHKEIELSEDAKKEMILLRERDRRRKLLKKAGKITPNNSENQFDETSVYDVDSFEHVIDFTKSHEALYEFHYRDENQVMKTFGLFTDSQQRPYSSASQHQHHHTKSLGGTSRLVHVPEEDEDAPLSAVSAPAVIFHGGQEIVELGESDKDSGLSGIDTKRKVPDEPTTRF
Put plainly: co-IP; lysates of daf-2 dauer larvae carrying ATGL-1::GFP or ATGL-1(S303A)::GFP; immunoprecipitation with a GFP antibody, immunoblot with anti-PAR-5 antibody.

Experiment [2] has as its target T2, ATGL-1::GFP (wild type ATGL-1 tagged with GFP, transgene) (C. elegans) (UniProt Q11186).
T2 sequence: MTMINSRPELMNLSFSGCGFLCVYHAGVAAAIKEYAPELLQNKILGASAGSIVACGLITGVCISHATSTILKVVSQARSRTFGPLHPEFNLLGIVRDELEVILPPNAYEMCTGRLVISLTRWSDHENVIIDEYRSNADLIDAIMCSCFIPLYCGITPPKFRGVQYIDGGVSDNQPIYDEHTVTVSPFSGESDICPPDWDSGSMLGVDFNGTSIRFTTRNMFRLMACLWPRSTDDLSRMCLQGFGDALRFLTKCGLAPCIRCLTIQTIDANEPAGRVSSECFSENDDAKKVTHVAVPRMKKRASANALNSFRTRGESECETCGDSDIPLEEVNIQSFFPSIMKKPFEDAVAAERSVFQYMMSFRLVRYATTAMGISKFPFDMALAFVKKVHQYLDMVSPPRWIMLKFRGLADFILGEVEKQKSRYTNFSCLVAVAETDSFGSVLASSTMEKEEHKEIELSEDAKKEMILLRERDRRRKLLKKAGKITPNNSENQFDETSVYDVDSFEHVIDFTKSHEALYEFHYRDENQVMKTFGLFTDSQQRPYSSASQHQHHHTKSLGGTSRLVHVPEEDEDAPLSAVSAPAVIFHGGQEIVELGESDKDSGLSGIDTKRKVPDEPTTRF
Described as above.

In experiment [3] the target is T3, adipose triglyceride lipase (ATGL-1), endogenous C. elegans protein (C. elegans) (UniProt Q11186).
T3 sequence: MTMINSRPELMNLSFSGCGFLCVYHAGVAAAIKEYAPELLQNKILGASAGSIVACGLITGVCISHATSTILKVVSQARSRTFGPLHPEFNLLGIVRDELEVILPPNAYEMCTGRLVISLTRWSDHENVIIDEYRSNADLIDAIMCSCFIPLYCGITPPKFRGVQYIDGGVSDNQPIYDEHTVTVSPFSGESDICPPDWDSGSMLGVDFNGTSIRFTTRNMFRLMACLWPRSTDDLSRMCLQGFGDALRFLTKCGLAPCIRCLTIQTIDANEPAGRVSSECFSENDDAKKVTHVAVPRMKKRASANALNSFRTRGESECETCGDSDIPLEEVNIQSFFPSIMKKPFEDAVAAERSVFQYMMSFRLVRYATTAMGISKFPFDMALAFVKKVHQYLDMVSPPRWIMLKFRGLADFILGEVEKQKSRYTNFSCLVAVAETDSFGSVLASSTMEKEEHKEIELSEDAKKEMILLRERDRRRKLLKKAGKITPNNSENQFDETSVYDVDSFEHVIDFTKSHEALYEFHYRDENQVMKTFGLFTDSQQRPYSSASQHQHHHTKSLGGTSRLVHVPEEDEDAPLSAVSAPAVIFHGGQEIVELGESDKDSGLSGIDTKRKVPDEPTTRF
Put plainly: co-IP; lysates of control daf-2 and daf-2; aak(0) dauer larvae (lysis buffer 50mM Hepes pH7.5, 150mM NaCl, 10% glycerol, 1% Triton X-100, 1.5mM MgCl2, 1mM EDTA); immunoprecipitation with anti-PAR-5 or anti-ATGL-1 antibody and Protein-A agarose, immunoblot with anti-ATGL-1 or anti-PAR-5; reciprocal. On the technique in general: In western blotting, separated proteins are transferred to a membrane and probed.

Experiment [4] has as its target T4, PAR-5, the C. elegans 14-3-3 protein orthologue (C. elegans) (UniProt P41932).
T4 sequence: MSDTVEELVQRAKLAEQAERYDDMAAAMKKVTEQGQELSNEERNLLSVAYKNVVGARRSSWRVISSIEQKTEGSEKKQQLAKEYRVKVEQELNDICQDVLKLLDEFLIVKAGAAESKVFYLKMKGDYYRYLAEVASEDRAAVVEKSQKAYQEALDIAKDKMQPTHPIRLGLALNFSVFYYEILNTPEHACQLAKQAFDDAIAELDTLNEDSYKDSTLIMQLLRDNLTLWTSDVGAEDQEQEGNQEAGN
Described as above.

Results are given in words; binding and its absence hold for the method and conditions named. Binding seen in cells or lysates may run through a third protein. Some results given as binding are weak or reduced against the parent protein; the word gives no strength. For some of these results: Sequences can lack the tags named with a protein.

B1: PAR-5, the C. elegans 14-3-3 protein orthologue (protein, UniProt P41932 1-248)
chain: MSDTVEELVQRAKLAEQAERYDDMAAAMKKVTEQGQELSNEERNLLSVAYKNVVGARRSSWRVISSIEQKTEGSEKKQQLAKEYRVKVEQELNDICQDVLKLLDEFLIVKAGAAESKVFYLKMKGDYYRYLAEVASEDRAAVVEKSQKAYQEALDIAKDKMQPTHPIRLGLALNFSVFYYEILNTPEHACQLAKQAFDDAIAELDTLNEDSYKDSTLIMQLLRDNLTLWTSDVGAEDQEQEGNQEAGN
Consider B1, for which the binding result in experiment [1], in experiment [2] and in experiment [3] was “binds” in each case.

B2: adipose triglyceride lipase (ATGL-1), endogenous C. elegans protein (enzyme, UniProt Q11186 1-621)
chain: MTMINSRPELMNLSFSGCGFLCVYHAGVAAAIKEYAPELLQNKILGASAGSIVACGLITGVCISHATSTILKVVSQARSRTFGPLHPEFNLLGIVRDELEVILPPNAYEMCTGRLVISLTRWSDHENVIIDEYRSNADLIDAIMCSCFIPLYCGITPPKFRGVQYIDGGVSDNQPIYDEHTVTVSPFSGESDICPPDWDSGSMLGVDFNGTSIRFTTRNMFRLMACLWPRSTDDLSRMCLQGFGDALRFLTKCGLAPCIRCLTIQTIDANEPAGRVSSECFSENDDAKKVTHVAVPRMKKRASANALNSFRTRGESECETCGDSDIPLEEVNIQSFFPSIMKKPFEDAVAAERSVFQYMMSFRLVRYATTAMGISKFPFDMALAFVKKVHQYLDMVSPPRWIMLKFRGLADFILGEVEKQKSRYTNFSCLVAVAETDSFGSVLASSTMEKEEHKEIELSEDAKKEMILLRERDRRRKLLKKAGKITPNNSENQFDETSVYDVDSFEHVIDFTKSHEALYEFHYRDENQVMKTFGLFTDSQQRPYSSASQHQHHHTKSLGGTSRLVHVPEEDEDAPLSAVSAPAVIFHGGQEIVELGESDKDSGLSGIDTKRKVPDEPTTRF
As to B2, the binding result in experiment [4] is “binds”.
